Reference: the supplement of paper PMC4604168 (melanoma cell lines)
The other results are listed elsewhere or left out. Single values are uncertain, as repeats are few or missing.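 Imaging used 1,536-well plates; nuclei positive for cleaved PARP by antibody were divided by total DNA-stained nuclei to yield the apoptosis fraction. Doses for screening kept most cells viable, and cell lines differ markedly in resting and induced cleaved-PARP levels.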

Tests used:
Assay in all cases: cleaved PARP positive nuclei fraction relative to DMSO control; melanoma cells; higher = more apoptosis
Settings in all cases: library dose: low library concentration; 72 h
MZ2-MEL = tested on: MZ2-MEL
MeWo = tested on: MeWo
RPMI7951 = tested on: RPMI7951
RVH-421 = tested on: RVH-421
SkMel28 = tested on: SkMel28
SkMel2 = tested on: SkMel2
SkMel30 = tested on: SkMel30
SkMel5 = tested on: SkMel5
UACC257 = tested on: UACC257
UACC62 = tested on: UACC62
WM115 = tested on: WM115
WM1716 = tested on: WM1716
WM1745 = tested on: WM1745
WM3526 = tested on: WM3526
WM3619 = tested on: WM3619
WM451Lu = tested on: WM451Lu

Structure (SMILES)	cleaved PARP positive nuclei fraction (MZ2-MEL) [%]	cleaved PARP positive nuclei fraction (MeWo) [%]	cleaved PARP positive nuclei fraction (RPMI7951) [%]	cleaved PARP positive nuclei fraction (RVH-421) [%]	cleaved PARP positive nuclei fraction (SkMel28) [%]	cleaved PARP positive nuclei fraction (SkMel2) [%]	cleaved PARP positive nuclei fraction (SkMel30) [%]	cleaved PARP positive nuclei fraction (SkMel5) [%]	cleaved PARP positive nuclei fraction (UACC257) [%]	cleaved PARP positive nuclei fraction (UACC62) [%]	cleaved PARP positive nuclei fraction (WM115) [%]	cleaved PARP positive nuclei fraction (WM1716) [%]	cleaved PARP positive nuclei fraction (WM1745) [%]	cleaved PARP positive nuclei fraction (WM3526) [%]	cleaved PARP positive nuclei fraction (WM3619) [%]	cleaved PARP positive nuclei fraction (WM451Lu) [%]
CC(C)C[C@H](NC(=O)[C@H](Cc1ccccc1)NC(=O)c1cnccn1)B(O)O [Bortezomib] + CN(NC(=O)CC(=O)NN(C)C(=S)c1ccccc1)C(=S)c1ccccc1 [STA4783] (first compound 0.001 µM, partner dose 0.006 µM)	224	177	114	46.6	58.8	69.1	60.3	85.8	88.4	142	405	680	253	66.8	574	224
C[C@@H](Oc1cc(-c2cnn(C3CCNCC3)c2)cnc1N)c1c(Cl)ccc(F)c1Cl [Crizotinib] + COc1ccc2c(c1)CCC1C2CCC2(C)C(NCCCCCCN3C(=O)C=CC3=O)CCC12 [U73122] (first compound 0.2 µM, partner dose 0.4 µM)	88.9	135	144	120	134	73.2	17	298	38.7	343	72.9	196	182	109	103	48.1
Nc1ccn([C@@H]2O[C@H](CO)[C@@H](O)C2(F)F)c(=O)n1 [gemcitabine] + Cn1cncc1[C@@](N)(c1ccc(Cl)cc1)c1ccc2c(c1)c(-c1cccc(Cl)c1)cc(=O)n2C [tipifarnib] (first compound 0.0004 µM, partner dose 0.01 µM)	97.2	52.6	99	90.3	212	191	57.7	174	92	57.6	182	45.3	119	71.5	404	118
C[C@@H](Oc1cc(-c2cnn(C3CCNCC3)c2)cnc1N)c1c(Cl)ccc(F)c1Cl [Crizotinib] + OCCn1cc(-c2cnc3nnn(Cc4ccc5ncccc5c4)c3n2)cn1 [PF04217903] (first compound 0.2 µM, partner dose 1 µM)	133	79.3	100	24.4	36.9	144	78.9	99.6	57.5	76.7	61.5	81.1	98.2	206	84.1	225
O=C(O)[C@@H]1[O][Sb](=[O])([O][Sb]2(=[O])[O][C@H]([C@H](O)CO)[C@H](O)[C@H](C(=O)O)[O]2)[O][C@H]([C@H](O)CO)[C@@H]1O (some centres undefined) [stibogluconate] + Cc1ccc(NC(=O)c2cccc(N(C)C)c2)cc1NC(=O)c1ccc(O)cc1 [ZM336372] (first compound 2 µM, partner dose 2 µM)	105	102	111	86.5	197	58.6	74.8	64.3	101	107	158	138	100	82.4	102	24.3
Nc1ccn([C@@H]2O[C@H](CO)[C@@H](O)C2(F)F)c(=O)n1 [gemcitabine] + COc1cc(Nc2ncc(F)c(Nc3ccc4c(n3)NC(=O)C(C)(C)O4)n2)cc(OC)c1OC [Tamatinib] (first compound 0.0004 µM, partner dose 0.4 µM)	126	74.3	82.4	26.4	281	94.7	70.5	70.6	62.6	83.4	77.2	55.4	152	68.7	103	54.5
CN1CCN(c2ccc3nc(-c4c(N)c5c(F)cccc5[nH]c4=O)[nH]c3c2)CC1 [Dovitinib] + CCN(CC)CCCCNc1ncc2cc(-c3cc(OC)cc(OC)c3)c(NC(=O)NC(C)(C)C)nc2n1 [PD173074] (first compound 0.1 µM, partner dose 0.1 µM)	122	583	53.8	222	81.5	121	38.5	69.5	96.1	20.9	86.7	85	93.1	79.7	77.5	236
C[C@@H](Oc1cc(-c2cnn(C3CCNCC3)c2)cnc1N)c1c(Cl)ccc(F)c1Cl [Crizotinib] + O=S(=O)(c1ccccc1)N(CC(F)(F)F)c1ccc(C(O)(C(F)(F)F)C(F)(F)F)cc1 [T0901317] (first compound 0.2 µM, partner dose 1.4 µM)	104	69.5	130	124	210	145	137	100	80.7	176	38.4	106	99.7	166	103	36.4
CCCS(=O)(=O)Nc1ccc(F)c(C(=O)c2c[nH]c3ncc(Cl)cc23)c1F + O=C(CCCCCCC(=O)Nc1ccccc1)NO [vorinostat] (first compound 0.08 µM, partner dose 0.08 µM)	100	61.4	59.1	90.6	144	143	83.2	32.8	72.1	123	72.4	36.5	82.2	39.1	206	69.6

A few values from the results shown.
In cleaved PARP positive nuclei fraction (MeWo) [%], CCCS(=O)(=O)Nc1ccc(F)c(C(=O)c2c[nH]c3ncc(Cl)cc23)c1F + O=C(CCCCCCC(=O)Nc1ccccc1)NO [vorinostat] (first compound 0.08 µM, partner dose 0.08 µM) is entered as 61.4
In cleaved PARP positive nuclei fraction (WM3619) [%], Nc1ccn([C@@H]2O[C@H](CO)[C@@H](O)C2(F)F)c(=O)n1 [gemcitabine] + Cn1cncc1[C@@](N)(c1ccc(Cl)cc1)c1ccc2c(c1)c(-c1cccc(Cl)c1)cc(=O)n2C [tipifarnib] (first compound 0.0004 µM, partner dose 0.01 µM) is entered as 404
